Values quoted from earlier work in patent US20060280786A1, “PHARMACEUTICAL FORMULATIONS FOR MINIMIZING DRUG-DRUG INTERACTIONS” (priority 2005, published 2006).
At least one compound was matched to its structure with a doubt left.

Target: midazolam metabolism
Settings: affected drug midazolam; read-out: Ki (inhibition constant of the inhibitor for midazolam)

CCC(C)n1ncn(-c2ccc(N3CCN(c4ccc(OCC5COC(Cn6cncn6)(c6ccc(Cl)cc6Cl)O5)cc4)CC3)cc2)c1=O (stereo not shown) [itraconazole]
Ki: 275 nM
